# According to patent publication US20230293676A1, “Pharmaceutical Composition Comprising Hepatitis B Virus-Derived Polypeptide for Prevention or Treatment of Cancer” (priority 2020, published 2023):
# At least one peptide structure holds a part that was inferred or is arguable (an end, a ring closure or a residue). Ends that are not written are not given here.
# Key:
# MC38 tumor tissue [1] = experiment: maturation markers of dendritic cells in tumor tissues and lymph nodes, flow cytometry; format: in vivo, mice
# MC38 tumor tissue [2] = experiment: dendritic cells and Tip-DC population in MC38 tumor tissue and spleen, flow cytometry; format: in vivo, mice
# [3] = tested on: Mouse-derived dendritic cells; experiment: NOS2 Western blotting assay in dendritic cells; format: cell-based
# [4] = tested on: Mouse-derived dendritic cells; experiment: nitrite/nitrate kit, nitrate concentration in cell medium; format: cell-based
# MC38 cancer cells [5] = experiment: anticancer effect, poly6 injected before injection of MC38 cancer cells; format: in vivo, C57BL/6 mice; settings: vs PBS
# MC38 colon cancer cells [6] = experiment: anticancer effect in C57BL/6 mice injected with MC38 colon cancer cells; format: in vivo; settings: poly6 10 μg, compared to a PBS control
# MC38 tumor tissues = experiment: CD8 T cell-mediated CTL response, qRT-PCR of mRNA in MC38 tumor tissue; format: in vivo, mice; settings: poly6-stimulated tumor tissue
# MC38 cancer cells [7] = experiment: 3-nitrotyrosine in cancer cells, confocal microscopy immunofluorescence; format: cell-based; settings: MC38 treated 4 hours with culture medium of poly6-treated dendritic cells
# [8] = tested on: B16F10 melanoma carcinoma; experiment: activated T cells and Tip-DCs in B16F10 tumor tissue, flow cytometer; format: in vivo, mice
# MC38 tumors = experiment: number of macrophages in MC38 tumors, flow cytometry; format: in vivo, mice
# [9] = tested on: Mouse-derived dendritic cells; experiment: expression of dendritic cell maturation markers, flow cytometer; format: cell-based; settings: poly6 10 μM, 24 hours
# MC38 colon cancer cells [10] = experiment: T cells and NK cells in MC38 tumor-bearing mice, flow cytometry; format: in vivo, C57BL/6 mice
# tumor tissue = experiment: 3-nitrotyrosine in tumor tissue, immunofluorescence confocal microscopy; format: in vivo
# MC38 cancer cells [11] = experiment: 3-nitrotyrosine accumulation in cancer cells, flow cytometry; format: cell-based; settings: culture medium of DC2.4 stimulated with poly6 for 48 hours, cancer cells treated 4 hours
# [12] = tested on: B16F10 melanoma cancer cells; experiment: anticancer effect in C57BL/6 mice injected with B16F10 melanoma cancer cells; format: in vivo; settings: poly6 10 μg, compared to a PBS control
# [13] = tested on: Bone marrow-derived dendritic cells; experiment: differentiation into TNF-α/iNOS-producing dendritic cells (Tip-DCs), flow cytometer; format: cell-based, mouse
# MC38 colon cancer tissue = experiment: hematoxylin and eosin staining of MC38 tumors; format: in vivo, mice
substance,measurement,setting,value
"GRLVFQ [poly6, GRLVFQ]",CD40 on dendritic cells,MC38 tumor tissue [1]; draining lymph nodes,drastic increase
same,CD80 on dendritic cells,MC38 tumor tissue [1]; draining lymph nodes,increased
same,MHC2 on dendritic cells,MC38 tumor tissue [1]; draining lymph nodes,increased
same,CD40 on dendritic cells,MC38 tumor tissue [1]; tumor tissue,drastic increase
same,CD86 on dendritic cells,MC38 tumor tissue [1]; tumor tissue,increased
same,MHCII on dendritic cells,MC38 tumor tissue [1]; tumor tissue,increased
same,Tip-DC population,MC38 tumor tissue [2]; MC38 tumor tissue,statistically significant formation
same,number of dendritic cells,MC38 tumor tissue [2]; MC38 tumor tissue,statistically significantly increased
same,Tip-DC population,MC38 tumor tissue [2]; spleen,statistically significant formation
same,number of dendritic cells,MC38 tumor tissue [2]; spleen,statistically significantly increased
same,NOS2,[3]; IFN K.O mice,"did not increase in IFN K.O mice, but rather decreased"
same,NOS2,"[3]; WT C57BL/6 mice, 24 hr",increased in a concentration-dependent manner
same,nitrate concentration in a cell medium,[4]; IFN K.O mice,not increased
same,nitrate concentration in a cell medium,[4]; WT mice,increased by poly6 treatment
same,tumor growth rate,"MC38 cancer cells [5]; poly6 10 μg one day before cancer cell injection plus three injections, up to day 23",reduced
same,tumor mass,"MC38 cancer cells [5]; pre-injection schedule, day 23",reduced
same,tumor weight,"MC38 cancer cells [5]; pre-injection schedule, day 23",reduced
same,tumor growth rate,MC38 colon cancer cells [6],reduced
same,tumor mass,MC38 colon cancer cells [6]; day 16,reduced
same,tumor weight,MC38 colon cancer cells [6]; day 16,reduced
same,mRNA levels of cytolytic proteins (granzymeB and perforin),MC38 tumor tissues,statistically significantly increased
same,"mRNA levels of pro-apoptotic proteins (Bax, bak, and cytochrome C)",MC38 tumor tissues,statistically significantly increased
same,3-nitrotyrosine level (fluorescence mean intensity),MC38 cancer cells [7],statistically significantly increased
same,TNF-α+ CD4+ T cells,[8],increased
same,TNF-α+ CD8+ T cells,[8],increased
same,Tip-DCs,[8],increased
same,number of macrophages,MC38 tumors; spleen,"decreased in the spleen, but the results were not statistically significant"
same,number of macrophages,MC38 tumors; tumor tissue,statistically significantly decreased
same,expression of CD40,[9],increased
same,expression of CD80,[9],increased
same,expression of CD86,[9],increased
same,expression of MHCII,[9],increased
same,CD4 T cells producing TNF-α or IFN-γ,MC38 colon cancer cells [10]; MC38 tumor tissue,increased
same,CD8 T cells producing TNF-α or IFN-γ,MC38 colon cancer cells [10]; MC38 tumor tissue,increased
same,CD44- and CD25-positive cells (markers of activated T cells),MC38 colon cancer cells [10]; MC38 tumor tissue,increased
same,number of T cells,"MC38 colon cancer cells [10]; MC38 tumor tissue, compared to a control",increased
same,natural killer cells,MC38 colon cancer cells [10]; spleen,"increased in tumor tissue and spleen by poly6 stimulation, but statistically significant results were not obtained"
same,natural killer cells,MC38 colon cancer cells [10]; tumor tissue,"increased in tumor tissue and spleen by poly6 stimulation, but statistically significant results were not obtained"
same,3-nitrotyrosine in tumor tissue,tumor tissue,increase
same,level of 3-nitrotyrosine,MC38 cancer cells [11],increase
same,tumor growth rate,[12],reduced
same,tumor mass,[12]; day 12,reduced
same,tumor weight,[12]; day 12,reduced
same,Tip-DCs differentiation,[13]; IFN K.O mice,did not differentiate
same,Tip-DCs (TNF-α/iNOS-producing dendritic cells) formation,"[13]; WT mice, poly6 24 hr",formed in bone marrow-derived dendritic cells of WT mice by poly6 treatment in a concentration-dependent manner
same,density in tumor tissue,MC38 colon cancer tissue; compared to a PBS control,reduced
same,immune cells in tumors (histology),MC38 colon cancer tissue; poly6-treated group,gathered at the edge of tumors
